From PubChem BioAssay AID445 (National Center for Advancing Translational Sciences (NCATS), 2006)
Some of the results follow. The main result of the screen is listed elsewhere. These columns were measured beside it and carry no call. Most of these compounds were active or inconclusive in the main read-out, so they are no random draw. Potencies come from curve fits of mixed quality, noted in brackets.

Experiment: IkB Signaling
Settings: ABC-DLBCL IkBa-CBG/CBR dual luciferase ratio (green luciferase fused to IkBa over red control in OCI-Ly3 lymphoma cells), 4 h
In short: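 Luminescence ratio of IκBα-fused green versus native red beetle luciferase in OCI-Ly3 cells, 4 h post-doxycycline with compound; red signal alone, scaled from basal (0%) to zero light (-100%), flagged nonspecific or cytotoxic effects.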

[1] = measured here: control luc red channel unless noted

## CCOC(=O)c1ccc(NC(=O)CC2C(=O)N(c3ccccc3)C(=O)N2C2CCCCC2)cc1 (configuration not stated)
[1]
  AC50: 25.1 µM [falling, partial curve]

## O=C(CSc1oc(-c2ccco2)nc1S(=O)(=O)c1ccccc1)c1ccc(Cl)cc1
[1]
  AC50: 0.794 µM [falling, full curve, poor fit]

## Cc1sc2nc3c4ccccc4c(NCc4ccco4)nn3c(=O)c2c1C
Measured here: IkB-luc green channel
  AC50: 6.31 µM [rising, single point]
Measured here: control luc red channel
  AC50: 39.8 µM [falling, single point]

## Cc1ccc(OCC(=O)Nc2ccc(S(=O)(=O)N(Cc3ccccc3)c3ccccc3)cc2)cc1
[1]
  AC50: 6.31 µM [rising, partial curve]

## COC(=O)c1sccc1NC(=O)CSc1nnnn1-c1ccccc1F
[1]
  AC50: 12.6 µM [falling, partial curve]

## CCOC(=O)c1c(-c2ccc(OC)c(OC)c2)csc1NC(=O)c1ccc(F)cc1
[1]
  AC50: 6.31 µM [falling, partial curve]

## COc1cccc(N2C(=O)CSC23C(=O)N(CC(=O)NCc2ccc(C)cc2)c2ccccc23)c1 (configuration not stated)
[1]
  AC50: 20 µM [falling, partial curve, poor fit]

## CSC1=NC2(CCN(C(=O)NC3CCCCC3)CC2)N=C1c1ccc(C(C)(C)C)cc1
[1]
  AC50: 12.6 µM [falling, partial curve]

## CCc1ccc2occ(CC(=O)Nc3sc4c(c3C(=O)OC)CCC4)c2c1
[1]
  AC50: 12.6 µM [falling, partial curve]

## O=C(NCS(=O)(=O)c1ccccc1)c1ccccc1
[1]
  AC50: 20 µM [rising, partial curve] [measured here: IkB-luc green channel]

## CCC(=O)N1CCc2cc(Br)cc(S(=O)(=O)N(CC)Cc3ccccc3)c21
[1]
  AC50: 10 µM [falling, partial curve]

## O=C(CSc1nnc(-c2ccccc2)n1Cc1ccco1)Nc1ccc2c(c1)OCCO2
[1]
  AC50: 20 µM [falling, partial curve]

## Cc1cccc(N2CCN(c3ncnc4onc(C)c34)CC2C)c1 (configuration not stated)
[1]
  AC50: 3.16 µM [falling, full curve]

## Cc1nc(-c2cccc(F)c2)sc1CCNC(=O)C(=O)Nc1ccc2c(c1)OCO2
[1]
  AC50: 31.6 µM [rising, partial curve, poor fit]

## COC(=O)CSc1ccc2nnc(CCNS(=O)(=O)c3ccccc3)n2n1
[1]
  AC50: 6.31 µM [rising, partial curve]

## CCC(=O)Nc1cccc(-c2nc3ccccc3o2)c1
[1]
  AC50: 20 µM [falling, single point]

## CCOC(=O)c1ccc(NC(=O)c2c(NCc3cc(OC)c(OC)cc3OC)sc3c2CCCC3)cc1
[1]
  AC50: 10 µM [falling, partial curve]

## Cn1c(=O)oc2cc(S(=O)(=O)N3CCCC(C(=O)N4CCN(c5cccc(Cl)c5)CC4)C3)ccc21 (configuration not stated)
[1]
  AC50: 10 µM [falling, partial curve]

## O=C(CC1(O)C(=O)N(Cc2ccccc2)c2ccc(Br)cc21)c1ccccc1 (configuration not stated)
[1]
  AC50: 20 µM [falling, partial curve, poor fit]

## NS(=O)(=O)c1cc(C(=O)O)cc(N2CCCC2)c1Oc1ccccc1
[1]
  AC50: 7.94 µM [rising, partial curve] [measured here: IkB-luc green channel]

## CCOC(=O)c1cccc(NC(=O)Nc2cc(OC)ccc2OC)c1
[1]
  AC50: 10 µM [falling, partial curve]

## CCOC(=O)Cn1cnc2c(cnn2-c2ccc(C)c(C)c2)c1=O
[1]
  AC50: 31.6 µM [falling, single point]

## COc1ccccc1-c1nc(C#N)c(N2CCc3ccccc3C2)o1
[1]
  AC50: 39.8 µM [falling, single point]

## Cc1ccccc1C(=O)NCc1ccc2c(c1)CCN2C(=O)c1ccc(F)cc1
[1]
  AC50: 25.1 µM [falling, partial curve]

## O=C(Nc1cccc(S(=O)(=O)C(F)F)c1)c1ccc(S(=O)(=O)N2CCOCC2)cc1
[1]
  AC50: 12.6 µM [falling, partial curve]

## COc1ccccc1CNC(=O)c1cc(-c2ccccc2)n[nH]1
[1]
  AC50: 12.6 µM [falling, partial curve]

## CNC(=O)[C@@H]1O[C@@H](n2cnc3c(NCc4cccc(I)c4)ncnc32)[C@H](O)[C@@H]1O
[1]
  AC50: 2.51 µM [rising, partial curve] [measured here: IkB-luc green channel]

## O=C(NCCCN1CCN(c2cccc(Cl)c2)CC1)c1nnc(Cc2ccc(F)cc2Cl)o1
[1]
  AC50: 31.6 µM [falling, single point]

## Cc1ccc2nc(NC(=O)CSc3ncc(C(=O)Nc4ccccc4)c(=O)n3C)sc2c1
[1]
  AC50: 7.94 µM [falling, partial curve]

## CCOP(=O)(c1ccc(N(C)C)cc1)C(O)c1ccc(Cl)cc1 (configuration not stated)
[1]
  AC50: 2 µM [falling, full curve]

## O=C(COc1ccc(Br)cc1)Nc1cccc2cccnc12
[1]
  AC50: 5.01 µM [rising, single point]

## COC(=O)CN1C(=O)C(C)(C)c2cc(S(=O)(=O)Nc3ccc(C(C)C)cc3)ccc21
[1]
  AC50: 25.1 µM [falling, partial curve, poor fit]

## COc1cccc(NC(=O)c2oc3ccccc3c2NC(=O)Cc2cccc(C)c2)c1
[1]
  AC50: 10 µM [falling, partial curve]

## CCc1ccc(-n2nc(CO)c(C(=O)NCCCCc3ccccc3)n2)cc1
[1]
  AC50: 0.2 µM [rising, full curve, poor fit]

## Cc1ccccc1OCC(=O)N(Cc1ccc(C(C)C)cc1)C1CCS(=O)(=O)C1 (configuration not stated)
[1]
  AC50: 31.6 µM [falling, partial curve]

## COc1ccc(N2CC(NC(=O)c3ccc(S(=O)(=O)N4CCOCC4)cc3)CC2=O)cc1 (configuration not stated)
[1]
  AC50: 6.31 µM [falling, single point]

## COc1cc2c(cc1OC)C(COc1ccc(C(C)C)cc1)N(C(=O)COc1ccccc1)CC2 (configuration not stated)
[1]
  AC50: 20 µM [falling, single point]

## COc1ccccc1NC(=O)C1CCN(c2ncnc3c2nc2n3CCCCC2)CC1
[1]
  AC50: 39.8 µM [falling, partial curve, poor fit]

## CCOC(=O)CSc1ncnc2c1c(-c1ccccc1)cn2-c1ccc(OC)cc1
[1]
  AC50: 7.94 µM [falling, single point]

## CC(C)c1[nH]nc2c1C(C(C)C)C(C#N)=C(N)O2 (configuration not stated)
[1]
  AC50: 31.6 µM [falling, partial curve]

## Cc1cccc(C(=O)Nc2cccc(C(=O)OCc3cc(=O)n4nc(C5CC5)sc4n3)c2)c1
[1]
  AC50: 0.794 µM [falling, full curve]

## N#Cc1ccccc1NC(=O)C(=O)NCC(c1cccnc1)N1CCN(c2ccccc2)CC1 (configuration not stated)
[1]
  AC50: 10 µM [falling, partial curve]

## O=C(NCc1ccco1)c1cc(-c2ccc(F)cc2)on1
[1]
  AC50: 3.16 µM [falling, full curve]

## CCOc1ccc(C(=O)Nc2ccc3nc(SCC(=O)N4CCOCC4)sc3c2)cc1
[1]
  AC50: 12.6 µM [falling, partial curve]

## CCN1CCN(C(=O)c2ccc3c(c2)N(Cc2cc(C)ccc2C)C(=O)c2ccccc2S3(=O)=O)CC1
[1]
  AC50: 31.6 µM [falling, partial curve]

## Cc1cc(C)n(-c2nc3ccccc3c(=O)n2OCC(=O)OCc2ccccc2)n1
[1]
  AC50: 31.6 µM [rising, single point] [measured here: IkB-luc green channel]

## CCOC(=O)c1c(C)oc2nc(C)nc(NCCc3ccc(S(N)(=O)=O)cc3)c12
[1]
  AC50: 0.316 µM [rising, full curve, poor fit]

## CCCSCCCNC(=O)CN1C(=O)COc2ccc(S(=O)(=O)N3CCCCCC3)cc21
[1]
  AC50: 31.6 µM [falling, single point]

## Cc1cc(NC(=O)CN(c2cccc(C)c2C)S(=O)(=O)c2ccccc2)ccc1Br
[1]
  AC50: 3.98 µM [falling, full curve]

## COc1ccc(CCC(=O)NCc2ccc3c(c2)CCN3C(=O)c2cccc(C)c2)cc1
[1]
  AC50: 39.8 µM [falling, single point]

## C=CCNC(=O)c1cc(-c2ccccc2O)on1
[1]
  AC50: 1.26 µM [falling, full curve]

## COc1ccc(C(=O)Nc2ccc(-c3cc(C(F)(F)F)nn3-c3ccccc3)cc2)cc1OC
[1]
  AC50: 10 µM [falling, partial curve]

## COc1ccc(-c2nnn(CC(=O)OC3CCCCC3)n2)cc1OC
[1]
  AC50: 39.8 µM [falling, single point]

## Cc1oc(-c2cccc(Cl)c2)nc1CSCC(=O)O
[1]
  AC50: 7.94 µM [falling, partial curve]

## CCN(C(=O)c1cc2c(Cl)nc3ccc(C)cc3c2s1)c1cc(OC)ccc1OC
[1]
  AC50: 10 µM [falling, partial curve]

## Cc1ccc2cc(CN(Cc3cccs3)Cc3nnnn3CC3CCCO3)c(=O)[nH]c2c1 (configuration not stated)
[1]
  AC50: 12.6 µM [falling, partial curve]

## CC1(c2ccccc2)CC(C)(C)N(C(=O)c2ccccc2Cl)c2ccccc21 (configuration not stated)
[1]
  AC50: 10 µM [falling, partial curve]

## COc1ccccc1C(=O)Nc1c(C(=O)Nc2ccc(C)cc2)oc2ccccc12
[1]
  AC50: 25.1 µM [falling, single point]

## CCOC(=O)c1cccc(NC(=O)CCc2nc(-c3ccc(C)cc3)no2)c1
[1]
  AC50: 2.51 µM [falling, full curve, poor fit]

## Cc1cccc(-c2nnc(SCCC(=O)O)o2)c1
[1]
  AC50: 1.26 µM [falling, full curve]

## Cc1ccc2nc(N3CCC(C(=O)O)CC3)nc(-c3ccccc3)c2c1
[1]
  AC50: 10 µM [falling, partial curve]
